Structures can show the parent of a compound that is named as a salt. The list shows a part of the results. The calls rarely recur for the same compound in another form.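 In K562 cells expressing nanoluciferase-fused kinases, luminescence was recorded at 4 h intervals between 2 and 18 h, normalized as percent of control with DMSO at 100% and a positive control at 0%. A significant (2 sigma) signal drop marks a time point as decreased. The authors' rule for a hit is not shown and takes in more than the number of time points.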
Columns and labels:
Experiment in all cases: number of time points (of 5) at which kinase-Nluc abundance scored as decreased, DMSO-normalised (count); higher = more persistent destabilization
Conditions in all cases: K562; 2-18 h
[1] = molecular target: LMTK2 (UniProt Q8IWU2)
[2] = molecular target: LYN (UniProt P07948)
[3] = molecular target: MAP2K1 (UniProt Q02750)
[4] = molecular target: MAP2K2 (UniProt P36507)
[5] = molecular target: MAP4K2 (UniProt Q12851)
[6] = molecular target: MAPK1 (UniProt P28482)
[7] = molecular target: MAPK4 (UniProt P31152)
[8] = molecular target: MAPKAPK2 (UniProt P49137)
[9] = molecular target: MKNK1 (UniProt Q9BUB5)
[10] = molecular target: NTRK2 (UniProt Q16620)

Sequences of proteins named here, by UniProt entry; tags and fusion partners are left off. A change or cut given only in a name is not applied to a line headed by its entry.
UniProt Q8IWU2: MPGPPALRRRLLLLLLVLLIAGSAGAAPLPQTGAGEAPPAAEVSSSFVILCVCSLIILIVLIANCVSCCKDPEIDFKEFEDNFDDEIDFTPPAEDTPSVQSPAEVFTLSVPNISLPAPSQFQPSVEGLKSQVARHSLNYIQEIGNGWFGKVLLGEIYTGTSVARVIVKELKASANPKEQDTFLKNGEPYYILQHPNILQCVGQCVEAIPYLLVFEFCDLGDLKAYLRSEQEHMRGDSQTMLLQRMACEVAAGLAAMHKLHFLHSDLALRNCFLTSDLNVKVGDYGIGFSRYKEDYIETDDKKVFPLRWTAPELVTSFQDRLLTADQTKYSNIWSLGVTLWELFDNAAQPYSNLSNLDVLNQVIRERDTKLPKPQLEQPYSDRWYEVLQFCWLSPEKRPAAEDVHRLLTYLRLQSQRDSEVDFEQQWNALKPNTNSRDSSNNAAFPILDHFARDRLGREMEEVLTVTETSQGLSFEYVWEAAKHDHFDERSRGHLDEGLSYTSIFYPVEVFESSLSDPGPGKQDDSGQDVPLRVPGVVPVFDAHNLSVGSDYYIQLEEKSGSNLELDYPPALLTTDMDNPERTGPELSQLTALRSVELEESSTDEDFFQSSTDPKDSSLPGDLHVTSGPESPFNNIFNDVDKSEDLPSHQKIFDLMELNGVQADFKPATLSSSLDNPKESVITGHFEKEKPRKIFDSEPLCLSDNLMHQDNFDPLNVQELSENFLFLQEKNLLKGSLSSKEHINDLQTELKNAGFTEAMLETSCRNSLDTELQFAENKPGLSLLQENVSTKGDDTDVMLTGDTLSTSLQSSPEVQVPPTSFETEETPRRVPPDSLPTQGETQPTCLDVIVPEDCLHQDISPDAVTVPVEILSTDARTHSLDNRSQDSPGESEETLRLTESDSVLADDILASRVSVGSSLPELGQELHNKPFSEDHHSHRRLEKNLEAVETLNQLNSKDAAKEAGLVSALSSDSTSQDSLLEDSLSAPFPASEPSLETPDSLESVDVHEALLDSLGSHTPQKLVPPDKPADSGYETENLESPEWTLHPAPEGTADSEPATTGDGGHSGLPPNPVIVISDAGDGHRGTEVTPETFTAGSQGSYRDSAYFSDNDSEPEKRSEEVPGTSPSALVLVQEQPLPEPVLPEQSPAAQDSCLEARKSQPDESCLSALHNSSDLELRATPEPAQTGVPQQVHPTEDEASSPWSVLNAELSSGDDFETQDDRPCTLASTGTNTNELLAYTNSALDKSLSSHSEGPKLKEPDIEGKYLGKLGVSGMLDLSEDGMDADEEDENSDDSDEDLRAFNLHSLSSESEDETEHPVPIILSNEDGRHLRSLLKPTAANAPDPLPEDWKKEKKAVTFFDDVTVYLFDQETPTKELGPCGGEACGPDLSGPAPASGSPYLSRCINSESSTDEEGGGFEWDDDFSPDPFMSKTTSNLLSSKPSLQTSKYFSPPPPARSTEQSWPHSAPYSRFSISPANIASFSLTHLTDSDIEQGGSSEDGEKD
UniProt P07948: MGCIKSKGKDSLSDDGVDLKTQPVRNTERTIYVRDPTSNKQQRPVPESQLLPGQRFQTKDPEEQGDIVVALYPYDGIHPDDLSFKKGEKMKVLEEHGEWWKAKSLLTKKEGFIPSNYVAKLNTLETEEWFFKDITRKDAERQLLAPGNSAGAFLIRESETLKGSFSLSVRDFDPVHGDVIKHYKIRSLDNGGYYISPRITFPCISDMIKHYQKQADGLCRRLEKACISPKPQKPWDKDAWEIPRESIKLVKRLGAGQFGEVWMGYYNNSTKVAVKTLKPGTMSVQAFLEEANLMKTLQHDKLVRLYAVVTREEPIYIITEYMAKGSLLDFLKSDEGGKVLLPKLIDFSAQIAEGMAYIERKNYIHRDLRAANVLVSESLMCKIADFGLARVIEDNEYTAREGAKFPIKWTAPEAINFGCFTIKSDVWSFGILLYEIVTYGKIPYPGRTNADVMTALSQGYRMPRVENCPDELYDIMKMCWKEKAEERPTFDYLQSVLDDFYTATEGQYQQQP
UniProt Q12851: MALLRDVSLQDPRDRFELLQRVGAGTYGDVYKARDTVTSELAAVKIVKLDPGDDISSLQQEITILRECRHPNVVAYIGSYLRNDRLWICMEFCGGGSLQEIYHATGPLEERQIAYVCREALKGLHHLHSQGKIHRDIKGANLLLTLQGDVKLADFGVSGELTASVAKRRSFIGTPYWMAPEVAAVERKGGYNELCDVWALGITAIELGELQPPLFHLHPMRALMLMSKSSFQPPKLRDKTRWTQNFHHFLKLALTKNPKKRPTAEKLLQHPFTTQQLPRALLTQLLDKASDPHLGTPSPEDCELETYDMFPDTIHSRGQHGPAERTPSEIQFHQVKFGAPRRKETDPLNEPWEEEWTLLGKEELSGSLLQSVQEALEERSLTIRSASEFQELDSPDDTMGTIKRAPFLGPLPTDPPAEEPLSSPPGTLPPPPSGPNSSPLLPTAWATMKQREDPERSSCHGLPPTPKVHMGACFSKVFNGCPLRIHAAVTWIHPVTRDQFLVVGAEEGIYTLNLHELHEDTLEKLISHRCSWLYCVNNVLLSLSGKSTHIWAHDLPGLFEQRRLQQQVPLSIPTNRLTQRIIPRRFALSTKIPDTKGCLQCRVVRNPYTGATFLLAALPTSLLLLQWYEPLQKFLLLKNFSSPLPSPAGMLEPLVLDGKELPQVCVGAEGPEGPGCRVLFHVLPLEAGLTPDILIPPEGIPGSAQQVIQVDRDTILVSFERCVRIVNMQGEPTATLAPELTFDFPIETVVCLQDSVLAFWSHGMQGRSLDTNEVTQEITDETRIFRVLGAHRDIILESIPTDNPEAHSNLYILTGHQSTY
UniProt P28482, whole entry: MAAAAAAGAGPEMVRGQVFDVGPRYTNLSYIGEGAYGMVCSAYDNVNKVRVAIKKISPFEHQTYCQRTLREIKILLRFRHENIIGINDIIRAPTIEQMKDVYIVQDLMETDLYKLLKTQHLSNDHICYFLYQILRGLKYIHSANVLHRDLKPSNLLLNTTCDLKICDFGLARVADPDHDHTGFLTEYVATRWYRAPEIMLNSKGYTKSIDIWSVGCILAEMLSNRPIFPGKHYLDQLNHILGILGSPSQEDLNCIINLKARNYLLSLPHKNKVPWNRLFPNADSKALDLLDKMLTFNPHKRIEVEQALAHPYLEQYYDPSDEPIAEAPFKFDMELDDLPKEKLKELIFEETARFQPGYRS
UniProt P31152, whole entry: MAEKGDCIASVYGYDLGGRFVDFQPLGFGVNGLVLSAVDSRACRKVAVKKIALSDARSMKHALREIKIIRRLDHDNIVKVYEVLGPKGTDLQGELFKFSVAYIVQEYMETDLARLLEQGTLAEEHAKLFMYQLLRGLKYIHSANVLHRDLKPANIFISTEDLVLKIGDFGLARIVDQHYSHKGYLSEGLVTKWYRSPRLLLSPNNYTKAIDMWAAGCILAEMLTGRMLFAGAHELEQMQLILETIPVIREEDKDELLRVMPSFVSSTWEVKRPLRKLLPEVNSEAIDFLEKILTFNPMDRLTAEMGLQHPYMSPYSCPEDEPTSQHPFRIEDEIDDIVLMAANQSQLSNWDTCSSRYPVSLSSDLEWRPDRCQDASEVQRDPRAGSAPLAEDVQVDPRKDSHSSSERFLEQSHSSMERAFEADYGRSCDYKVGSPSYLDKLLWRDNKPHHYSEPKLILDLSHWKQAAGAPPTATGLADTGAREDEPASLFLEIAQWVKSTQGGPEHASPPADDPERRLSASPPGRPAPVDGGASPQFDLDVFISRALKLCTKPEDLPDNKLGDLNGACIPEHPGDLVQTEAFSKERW
UniProt P49137, whole entry, looked up: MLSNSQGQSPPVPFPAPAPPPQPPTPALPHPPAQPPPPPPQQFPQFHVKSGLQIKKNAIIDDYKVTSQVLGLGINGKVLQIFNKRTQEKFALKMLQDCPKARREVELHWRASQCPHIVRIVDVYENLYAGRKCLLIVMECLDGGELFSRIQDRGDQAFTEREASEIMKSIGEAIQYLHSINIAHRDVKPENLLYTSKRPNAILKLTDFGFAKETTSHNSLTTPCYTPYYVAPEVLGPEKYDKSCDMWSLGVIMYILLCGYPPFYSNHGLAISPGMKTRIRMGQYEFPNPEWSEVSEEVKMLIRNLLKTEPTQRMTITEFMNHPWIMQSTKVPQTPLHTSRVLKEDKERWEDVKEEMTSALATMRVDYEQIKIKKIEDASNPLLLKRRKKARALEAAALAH
UniProt Q9BUB5: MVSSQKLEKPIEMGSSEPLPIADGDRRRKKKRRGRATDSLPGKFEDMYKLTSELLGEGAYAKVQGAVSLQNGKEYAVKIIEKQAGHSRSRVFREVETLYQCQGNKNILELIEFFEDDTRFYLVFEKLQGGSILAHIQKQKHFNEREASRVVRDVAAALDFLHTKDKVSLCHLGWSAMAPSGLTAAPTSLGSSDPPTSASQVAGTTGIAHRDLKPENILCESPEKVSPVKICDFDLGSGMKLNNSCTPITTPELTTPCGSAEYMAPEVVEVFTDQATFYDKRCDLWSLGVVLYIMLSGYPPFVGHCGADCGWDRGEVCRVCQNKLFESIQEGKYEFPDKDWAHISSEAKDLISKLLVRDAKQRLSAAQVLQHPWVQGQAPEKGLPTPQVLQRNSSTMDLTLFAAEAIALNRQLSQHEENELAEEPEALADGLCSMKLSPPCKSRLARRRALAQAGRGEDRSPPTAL
UniProt Q16620, whole entry, looked up: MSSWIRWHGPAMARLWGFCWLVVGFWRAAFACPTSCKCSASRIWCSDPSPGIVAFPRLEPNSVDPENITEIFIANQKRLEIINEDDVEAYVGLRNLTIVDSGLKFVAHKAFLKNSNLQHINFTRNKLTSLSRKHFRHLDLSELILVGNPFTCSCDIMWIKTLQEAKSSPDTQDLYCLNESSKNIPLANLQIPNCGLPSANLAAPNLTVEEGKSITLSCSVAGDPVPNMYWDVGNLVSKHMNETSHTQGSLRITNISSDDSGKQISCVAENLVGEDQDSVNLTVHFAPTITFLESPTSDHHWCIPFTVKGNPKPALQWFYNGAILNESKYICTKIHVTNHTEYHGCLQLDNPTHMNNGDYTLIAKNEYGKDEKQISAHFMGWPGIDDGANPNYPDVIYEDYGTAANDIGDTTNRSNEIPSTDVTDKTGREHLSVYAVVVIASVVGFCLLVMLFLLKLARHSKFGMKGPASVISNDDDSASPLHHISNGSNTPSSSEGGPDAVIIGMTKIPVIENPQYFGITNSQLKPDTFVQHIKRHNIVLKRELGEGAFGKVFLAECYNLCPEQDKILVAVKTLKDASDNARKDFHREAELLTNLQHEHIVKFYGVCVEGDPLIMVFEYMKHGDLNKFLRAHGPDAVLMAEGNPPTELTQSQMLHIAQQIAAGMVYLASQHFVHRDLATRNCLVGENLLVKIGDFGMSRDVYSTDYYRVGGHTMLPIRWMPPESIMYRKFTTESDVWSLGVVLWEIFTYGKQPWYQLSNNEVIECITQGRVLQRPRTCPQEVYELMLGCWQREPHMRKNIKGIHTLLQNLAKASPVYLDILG

Measured: number of time points

COc1cc(/C=C/C(=O)NCC(O)c2ccc(O)cc2)ccc1O (stereo not given) [N-Feruloyloctopamine] (2.5 µM)
0: all assays above

CC(C)(C)c1cc(O)ccc1O (10 µM)
0: all assays above

COc1cc2c(N3CCN(C(=O)Nc4ccc(OC(C)C)cc4)CC3)ncnc2cc1OCCCN1CCCCC1 [Tandutinib (hydrochloride)] (10 µM)
0: all assays above

Cn1cnc2c(F)c(Nc3ccc(Br)cc3Cl)c(C(=O)NOCCO)cc21 [Selumetinib (sulfate)] (10 µM)
0: all assays above

Cc1ccc(OCCSc2ncccn2)c(Br)c1 [ZLN024 (hydrochloride)] (10 µM)
0: all assays above

C=C1C(=O)O[C@H]2C[C@H](C)C(/C=C/C(C)=O)=CC[C@H]12 [Xanthatin] (2.5 µM)
0: all assays above

O=C1Nc2ccc(C(=O)c3ccco3)cc2C1=Cc1cc(Cl)c(O)c(Cl)c1 (2.5 µM)
0: all assays above

CNC(=O)c1cc(COc2nnc(Nc3ccc(Cl)cc3)c3ccoc23)ccn1 [Telatinib] (10 µM)
0: all assays above

CC1CCc2c(cc(Br)c(F)c2Br)N1C=O (stereo not given) (10 µM)
0: all assays above

Cc1ccccc1-n1c([C@H](C)Nc2nc(N)nc3nc[nH]c23)nc2cccc(C)c2c1=O [CAL-130 (Hydrochloride)] (10 µM)
0: all assays above

COc1cc2c(cc1OC)CN(S(=O)(=O)c1ccc(OC)c(N3CCN(C(=O)c4ccc(F)cc4C(F)(F)F)CC3)c1)CC2 (10 µM)
0: all assays above

O=C1N[C@@H](Cc2c[nH]c3ccccc23)C(=O)N2CCC[C@@H]12 [Brevianamide F] (10 µM)
0: all assays above

FC(F)(F)c1ccc(CNc2ccc(Cc3c[nH]c4ncccc34)cn2)cc1 (10 µM)
0: all assays above

C[C@@H]1CCN(C(=O)CC#N)C[C@@H]1N(C)c1ncnc2[nH]ccc12 [Tofacitinib] (10 µM)
2: [1]
0: all other assays above

CC1(C)C(O[C@@H]2OC[C@@H](O)[C@H](O)[C@H]2O)CC[C@]23CC24CC[C@]2(C)[C@@H]([C@@]5(C)CC[C@@H](C(C)(C)O)O5)[C@H](O)C[C@@]2(C)C4C[C@@H](O[C@@H]2O[C@H](CO)[C@@H](O)[C@H](O)[C@H]2O)C13 (stereo not given in full) [Astragaloside IV] (10 µM)
0: all assays above

COc1cc(OC2CCN(C)CC2)ccc1Nc1ncc2c(n1)n(C1CCCC1)c(=O)n2C (10 µM)
0: all assays above

O=C(Nc1ccc(CN2CCOCC2)cc1)c1ccc(-c2cccc(Cl)c2)o1 (10 µM)
1: [1]
0: all other assays above

CS(=O)(=O)Nc1cc(-c2ccc3ncnc(Nc4ccc(F)c(Cl)c4)c3c2)cnc1Cl (2.5 µM)
0: all assays above

CN1CCC(c2cc(-c3ccncc3)c(-c3ccc(F)cc3)[nH]2)CC1 (10 µM)
0: all assays above

Cc1nc2sccn2c(=O)c1CCN1CCC(=C(c2ccccc2)c2ccc(F)cc2)CC1 (10 µM)
0: all assays above

CN(C)CCCOc1ccc(-c2ccc3ncc4c(c3c2)n(C2CCOCC2)c(=O)n4C)cn1 (2 µM)
0: all assays above

CCC(C)N1c2ccccc2C(=O)N(C)c2cnc(Nc3ccc(C(=O)N4CCC(N5CCN(C)CC5)CC4)cc3OC)nc21 (stereo not given) (2.5 µM)
0: all assays above

NS(=O)(=O)c1ccc(-n2nc(C(F)(F)F)cc2-c2ccc(Cl)cc2)cc1 (10 µM)
0: all assays above

Oc1cc2c(cc1O)C(Cc1cccc3ccccc13)NCC2 (stereo not given) (10 µM)
0: all assays above

C[C@@H]1CCN(C(=O)CC#N)C[C@@H]1N(C)c1ncnc2[nH]ccc12 [Tofacitinib (citrate)] (10 µM)
0: all assays above

CN1CCN(c2cnc3c(C4CCN(C(=O)c5ccc(OC(F)(F)F)cc5N)CC4)ncnc3c2)CC1 (10 µM)
0: all assays above

Cc1cc(Nc2ncnc3ccc(NC4=NC(C)(C)CO4)cc23)ccc1Oc1ccn2ncnc2c1 [Tucatinib (hemiethanolate)] (2.5 µM)
0: all assays above

COc1ccc(OC)c(C2C(C#N)=C(N)Oc3n[nH]c(-c4ccc5ccccc5c4)c32)c1 (stereo not given) (10 µM)
0: all assays above

C=CC(=O)Nc1cc(Nc2ncc(Cl)c(-c3c[nH]c4ccccc34)n2)c(OC)cc1N(C)CCN(C)C [Mutant EGFR inhibitor] (2.5 µM)
3: [9]
0: all other assays above

CN1CCN(c2cccc(Nc3nc4c(-c5ccc(S(C)(=O)=O)cc5)cccn4n3)c2)CC1 (10 µM)
0: all assays above

Cc1c(-c2c(F)cc(C(N)=O)c3[nH]c4c(c23)CC[C@H](C(C)(C)O)C4)cccc1-n1c(=O)c2cccc(F)c2n(C)c1=O (2.5 µM)
0: all assays above

O=C(NCCN1CCCC1)c1cc(-c2ccc(CN3CCOCC3)cc2)nc2ccc(F)cc12 (10 µM)
0: all assays above

Cn1nccc1Nc1nccc(-c2ccn([C@H](CO)c3ccc(Cl)c(F)c3)c(=O)c2)n1 [Ravoxertinib hydrochloride] (10 µM)
0: all assays above

Copied from above (8 entries):
Oc1cc2c(cc1O)C(Cc1cccc3ccccc13)NCC2 (stereo not given) (10 µM)
0: all assays above

C[C@@H]1CCN(C(=O)CC#N)C[C@@H]1N(C)c1ncnc2[nH]ccc12 [Tofacitinib (citrate)] (10 µM)
0: all assays above

CN1CCN(c2cnc3c(C4CCN(C(=O)c5ccc(OC(F)(F)F)cc5N)CC4)ncnc3c2)CC1 (10 µM)
0: all assays above

Cc1cc(Nc2ncnc3ccc(NC4=NC(C)(C)CO4)cc23)ccc1Oc1ccn2ncnc2c1 [Tucatinib (hemiethanolate)] (2.5 µM)
0: all assays above

COc1ccc(OC)c(C2C(C#N)=C(N)Oc3n[nH]c(-c4ccc5ccccc5c4)c32)c1 (stereo not given) (10 µM)
0: all assays above

C=CC(=O)Nc1cc(Nc2ncc(Cl)c(-c3c[nH]c4ccccc34)n2)c(OC)cc1N(C)CCN(C)C [Mutant EGFR inhibitor] (2.5 µM)
3: [9]
0: all other assays above

CN1CCN(c2cccc(Nc3nc4c(-c5ccc(S(C)(=O)=O)cc5)cccn4n3)c2)CC1 (10 µM)
0: all assays above

Cc1c(-c2c(F)cc(C(N)=O)c3[nH]c4c(c23)CC[C@H](C(C)(C)O)C4)cccc1-n1c(=O)c2cccc(F)c2n(C)c1=O (2.5 µM)
0: all assays above

Remaining list, next part.

O=c1[nH]c(=O)n([C@@H]2O[C@H](CO)[C@@H](O)[C@@H]2O)cc1/C=C/Br [Sorivudine] (10 µM)
0: all assays above

C[C@]1(O)CCN(c2nc(N3C[C@H](O)[C@@H](O)C3)cc(C(F)(F)F)c2C#N)C1 (10 µM)
0: all assays above

CCCCCCCCCCCCC/C=C/[C@@H](O)[C@@H](N)CO [D-erythro-Sphingosine] (2.5 µM)
0: all assays above

C[C@@H](c1ccc(-c2ccccc2)c(F)c1)c1cc(NC(=N)N2CCOCC2)on1 [Rimacalib] (10 µM)
0: all assays above

Cc1ccc(C(=O)Nc2ccc(Oc3cc4cnn(C)c4cc3-c3cn[nH]c3)c(F)c2)c(=O)n1-c1ccc(F)cc1 [Merestinib] (2.5 µM)
0: all assays above

CCc1cc2c(cc1N1CCC(N3CCOCC3)CC1)C(C)(C)c1[nH]c3cc(C#N)ccc3c1C2=O [Alectinib (Hydrochloride)] (2 µM)
0: all assays above
